The other results are listed elsewhere or left out.
Tests used:
Assay in all cases: log2 fold change, soluble protein after heating vs DMSO (PISA); higher = thermal stabilisation; K562 cells, 10 uM, 30 min; active = over 0.2 and 3.5 SD of the protein, either way, in both replicates (recomputed)
[1] = compound: C1=CC=C(C=C1)[C@H](COC2=CC3=C(C=C2)NC(=O)N3)NC(=O)C4=CC=CN(C4=O)CC5=CC(=C(C=C5)F)F
Outline: (§1)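 Thermal stability values are relative to control samples and come from duplicates. They are expressed as log2 fold changes. For measurement, K562 cells (2×10^6 cells/mL) received 10 μM compound for 30 min, and aliquots were heated for 3 min over 48°C-58°C, pooled, and extracted at 4°C in PBS with 0.5% NP-40. Soluble protein, the supernatant after 21,000xg for 90 min, was quantified by TMTpro 16plex LC-MS/MS with equalised channel sums.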

Chains of the proteins cited; added tags and fusions are not shown. Lines headed by an entry give the natural chain unless they say otherwise; changes in a name come on top.
UniProt Q8WUM9: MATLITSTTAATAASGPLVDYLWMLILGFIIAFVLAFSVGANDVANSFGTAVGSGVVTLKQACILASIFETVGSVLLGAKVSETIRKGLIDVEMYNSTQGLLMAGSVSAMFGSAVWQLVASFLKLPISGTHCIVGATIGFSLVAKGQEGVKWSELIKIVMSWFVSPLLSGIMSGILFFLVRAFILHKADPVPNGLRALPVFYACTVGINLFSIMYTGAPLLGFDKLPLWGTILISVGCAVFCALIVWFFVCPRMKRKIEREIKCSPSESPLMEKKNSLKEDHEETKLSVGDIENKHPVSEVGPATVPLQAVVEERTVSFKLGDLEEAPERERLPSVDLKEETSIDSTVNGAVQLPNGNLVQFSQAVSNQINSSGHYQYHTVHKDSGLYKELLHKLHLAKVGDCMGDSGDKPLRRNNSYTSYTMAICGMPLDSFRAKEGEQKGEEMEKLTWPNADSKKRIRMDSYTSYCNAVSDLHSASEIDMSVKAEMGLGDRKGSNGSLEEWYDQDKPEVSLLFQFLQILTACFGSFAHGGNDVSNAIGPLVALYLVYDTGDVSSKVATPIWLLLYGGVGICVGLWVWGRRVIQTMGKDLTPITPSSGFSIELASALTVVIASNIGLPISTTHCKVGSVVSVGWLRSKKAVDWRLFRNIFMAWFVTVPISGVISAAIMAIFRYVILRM
UniProt Q9BRV3: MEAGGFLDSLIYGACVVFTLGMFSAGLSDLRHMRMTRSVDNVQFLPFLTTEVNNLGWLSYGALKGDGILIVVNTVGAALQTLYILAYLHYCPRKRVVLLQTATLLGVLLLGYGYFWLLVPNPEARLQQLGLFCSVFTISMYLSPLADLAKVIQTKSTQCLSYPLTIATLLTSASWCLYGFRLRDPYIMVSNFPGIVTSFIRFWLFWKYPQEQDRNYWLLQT
UniProt L0R6Q1: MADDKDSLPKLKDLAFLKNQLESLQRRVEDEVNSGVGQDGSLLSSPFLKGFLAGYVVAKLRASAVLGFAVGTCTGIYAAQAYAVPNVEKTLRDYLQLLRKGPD
UniProt Q6YBV0: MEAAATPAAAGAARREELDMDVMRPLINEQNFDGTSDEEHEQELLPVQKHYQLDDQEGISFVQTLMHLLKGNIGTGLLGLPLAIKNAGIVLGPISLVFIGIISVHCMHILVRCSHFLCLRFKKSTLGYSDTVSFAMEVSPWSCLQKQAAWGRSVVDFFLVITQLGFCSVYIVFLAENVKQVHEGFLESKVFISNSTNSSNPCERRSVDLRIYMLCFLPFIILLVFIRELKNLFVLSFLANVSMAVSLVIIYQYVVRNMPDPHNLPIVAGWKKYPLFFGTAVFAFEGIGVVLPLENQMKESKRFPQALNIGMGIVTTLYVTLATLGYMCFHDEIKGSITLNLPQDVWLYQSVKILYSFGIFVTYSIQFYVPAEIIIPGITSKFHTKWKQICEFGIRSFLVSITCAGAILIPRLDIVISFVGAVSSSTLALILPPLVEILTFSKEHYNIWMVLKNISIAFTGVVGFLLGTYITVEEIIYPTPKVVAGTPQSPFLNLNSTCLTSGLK
UniProt Q6ZP29: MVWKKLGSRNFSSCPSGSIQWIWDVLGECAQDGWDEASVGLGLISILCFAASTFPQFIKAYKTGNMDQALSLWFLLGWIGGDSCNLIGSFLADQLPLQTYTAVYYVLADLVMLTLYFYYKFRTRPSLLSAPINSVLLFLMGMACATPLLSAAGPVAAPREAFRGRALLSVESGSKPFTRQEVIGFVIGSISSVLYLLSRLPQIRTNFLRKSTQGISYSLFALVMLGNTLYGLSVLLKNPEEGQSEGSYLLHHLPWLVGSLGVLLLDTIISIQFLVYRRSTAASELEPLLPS
UniProt P53985: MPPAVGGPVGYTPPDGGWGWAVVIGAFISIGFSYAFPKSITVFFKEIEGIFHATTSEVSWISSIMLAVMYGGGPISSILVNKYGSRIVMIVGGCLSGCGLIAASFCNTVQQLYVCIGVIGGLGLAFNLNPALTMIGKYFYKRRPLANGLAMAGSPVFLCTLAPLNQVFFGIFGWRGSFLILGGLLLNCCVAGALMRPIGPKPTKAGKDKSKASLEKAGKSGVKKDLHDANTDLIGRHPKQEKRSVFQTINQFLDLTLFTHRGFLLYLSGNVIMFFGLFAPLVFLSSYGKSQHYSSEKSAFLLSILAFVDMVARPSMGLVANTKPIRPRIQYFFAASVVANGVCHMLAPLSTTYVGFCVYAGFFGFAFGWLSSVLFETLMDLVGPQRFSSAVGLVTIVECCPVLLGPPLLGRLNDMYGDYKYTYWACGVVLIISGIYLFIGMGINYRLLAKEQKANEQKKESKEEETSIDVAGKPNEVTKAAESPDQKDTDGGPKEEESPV
UniProt Q08357: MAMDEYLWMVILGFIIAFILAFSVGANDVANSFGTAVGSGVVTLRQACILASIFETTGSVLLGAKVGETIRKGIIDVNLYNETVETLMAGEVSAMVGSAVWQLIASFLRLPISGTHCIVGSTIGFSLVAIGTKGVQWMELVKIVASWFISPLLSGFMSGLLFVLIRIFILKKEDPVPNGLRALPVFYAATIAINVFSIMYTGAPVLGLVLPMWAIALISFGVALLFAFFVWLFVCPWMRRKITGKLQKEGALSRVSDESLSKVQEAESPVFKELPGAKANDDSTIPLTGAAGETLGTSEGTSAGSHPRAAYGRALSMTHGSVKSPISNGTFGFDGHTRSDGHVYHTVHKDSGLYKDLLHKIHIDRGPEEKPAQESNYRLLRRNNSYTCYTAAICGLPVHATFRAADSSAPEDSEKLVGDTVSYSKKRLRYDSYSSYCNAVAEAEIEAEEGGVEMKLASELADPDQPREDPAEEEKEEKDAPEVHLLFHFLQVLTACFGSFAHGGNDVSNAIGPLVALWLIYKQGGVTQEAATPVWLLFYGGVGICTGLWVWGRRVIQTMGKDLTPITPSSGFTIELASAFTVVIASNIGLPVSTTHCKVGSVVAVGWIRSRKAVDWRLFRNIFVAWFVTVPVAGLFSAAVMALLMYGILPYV
UniProt Q9Y6M5: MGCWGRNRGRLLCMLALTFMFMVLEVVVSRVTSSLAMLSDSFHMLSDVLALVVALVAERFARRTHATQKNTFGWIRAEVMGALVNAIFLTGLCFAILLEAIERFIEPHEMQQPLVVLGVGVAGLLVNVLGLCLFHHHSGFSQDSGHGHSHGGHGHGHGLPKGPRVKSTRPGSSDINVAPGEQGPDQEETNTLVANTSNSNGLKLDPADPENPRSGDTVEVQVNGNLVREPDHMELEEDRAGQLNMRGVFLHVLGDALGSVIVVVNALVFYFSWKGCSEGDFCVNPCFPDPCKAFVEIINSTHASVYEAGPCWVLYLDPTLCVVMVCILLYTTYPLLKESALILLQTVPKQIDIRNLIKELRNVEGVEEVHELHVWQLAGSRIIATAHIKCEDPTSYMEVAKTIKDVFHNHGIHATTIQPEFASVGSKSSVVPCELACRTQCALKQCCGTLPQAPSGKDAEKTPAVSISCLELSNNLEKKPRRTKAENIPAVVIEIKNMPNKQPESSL
UniProt Q14542: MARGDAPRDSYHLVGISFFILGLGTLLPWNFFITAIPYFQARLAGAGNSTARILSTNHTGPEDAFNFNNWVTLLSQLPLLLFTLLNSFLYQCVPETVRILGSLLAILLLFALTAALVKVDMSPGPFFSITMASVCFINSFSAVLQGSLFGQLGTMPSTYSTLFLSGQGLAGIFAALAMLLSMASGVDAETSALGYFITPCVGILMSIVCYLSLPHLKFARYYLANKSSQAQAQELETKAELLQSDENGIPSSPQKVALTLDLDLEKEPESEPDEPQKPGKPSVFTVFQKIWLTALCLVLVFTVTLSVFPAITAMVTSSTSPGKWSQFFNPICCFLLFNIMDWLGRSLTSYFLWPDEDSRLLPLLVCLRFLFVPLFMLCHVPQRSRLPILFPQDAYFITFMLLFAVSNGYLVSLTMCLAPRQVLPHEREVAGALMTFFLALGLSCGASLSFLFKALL
UniProt Q8WV83: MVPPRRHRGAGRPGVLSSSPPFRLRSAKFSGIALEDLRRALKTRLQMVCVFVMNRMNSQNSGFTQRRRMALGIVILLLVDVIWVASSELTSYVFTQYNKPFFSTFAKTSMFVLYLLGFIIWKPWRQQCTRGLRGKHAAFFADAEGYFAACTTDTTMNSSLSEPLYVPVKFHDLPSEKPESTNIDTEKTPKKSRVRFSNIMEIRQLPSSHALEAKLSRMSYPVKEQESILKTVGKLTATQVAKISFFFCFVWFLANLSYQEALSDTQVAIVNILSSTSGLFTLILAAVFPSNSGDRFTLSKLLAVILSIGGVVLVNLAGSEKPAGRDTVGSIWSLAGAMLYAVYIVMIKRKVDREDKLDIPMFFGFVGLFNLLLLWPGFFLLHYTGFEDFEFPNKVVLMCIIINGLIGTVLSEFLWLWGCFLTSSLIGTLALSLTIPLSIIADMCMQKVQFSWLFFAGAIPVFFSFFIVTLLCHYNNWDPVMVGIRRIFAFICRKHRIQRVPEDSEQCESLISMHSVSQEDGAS
UniProt O43826: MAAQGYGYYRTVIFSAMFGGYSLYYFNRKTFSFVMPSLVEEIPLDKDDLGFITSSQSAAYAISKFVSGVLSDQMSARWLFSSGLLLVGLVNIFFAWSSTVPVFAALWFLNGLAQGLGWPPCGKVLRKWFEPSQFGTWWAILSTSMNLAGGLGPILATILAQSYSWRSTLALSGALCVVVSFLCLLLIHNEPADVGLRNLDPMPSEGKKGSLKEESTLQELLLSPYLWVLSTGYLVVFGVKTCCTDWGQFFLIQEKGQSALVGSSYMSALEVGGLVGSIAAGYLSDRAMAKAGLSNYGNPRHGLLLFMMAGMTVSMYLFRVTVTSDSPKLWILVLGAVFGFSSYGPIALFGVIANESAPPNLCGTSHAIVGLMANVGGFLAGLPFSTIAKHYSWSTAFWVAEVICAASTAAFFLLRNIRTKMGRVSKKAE
UniProt Q6PCB7: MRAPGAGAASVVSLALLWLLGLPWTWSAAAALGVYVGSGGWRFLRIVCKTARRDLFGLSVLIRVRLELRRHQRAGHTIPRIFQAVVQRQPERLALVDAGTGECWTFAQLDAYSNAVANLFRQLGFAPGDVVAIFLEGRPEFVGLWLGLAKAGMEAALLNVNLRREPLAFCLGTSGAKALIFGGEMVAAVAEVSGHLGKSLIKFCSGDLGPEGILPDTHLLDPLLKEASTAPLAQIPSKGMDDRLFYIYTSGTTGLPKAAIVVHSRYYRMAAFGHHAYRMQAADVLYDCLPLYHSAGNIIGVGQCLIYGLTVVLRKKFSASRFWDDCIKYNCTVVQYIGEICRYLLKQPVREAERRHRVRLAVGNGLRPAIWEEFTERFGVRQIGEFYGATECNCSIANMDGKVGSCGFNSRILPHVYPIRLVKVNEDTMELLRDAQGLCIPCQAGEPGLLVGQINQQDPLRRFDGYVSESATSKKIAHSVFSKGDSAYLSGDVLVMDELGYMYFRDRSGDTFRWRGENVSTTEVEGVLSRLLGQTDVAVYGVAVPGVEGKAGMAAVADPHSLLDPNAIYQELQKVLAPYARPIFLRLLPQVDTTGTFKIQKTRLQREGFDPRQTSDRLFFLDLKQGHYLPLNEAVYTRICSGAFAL
UniProt Q9Y2D2: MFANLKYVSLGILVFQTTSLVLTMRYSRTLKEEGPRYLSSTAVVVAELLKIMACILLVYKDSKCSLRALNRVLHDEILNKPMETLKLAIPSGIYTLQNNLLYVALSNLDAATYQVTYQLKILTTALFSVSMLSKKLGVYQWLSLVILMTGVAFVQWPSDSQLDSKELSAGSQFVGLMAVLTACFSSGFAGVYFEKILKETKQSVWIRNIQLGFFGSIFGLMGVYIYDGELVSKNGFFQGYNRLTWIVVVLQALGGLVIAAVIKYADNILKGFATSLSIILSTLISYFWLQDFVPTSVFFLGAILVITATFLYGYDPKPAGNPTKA
UniProt Q14493, whole entry, looked up: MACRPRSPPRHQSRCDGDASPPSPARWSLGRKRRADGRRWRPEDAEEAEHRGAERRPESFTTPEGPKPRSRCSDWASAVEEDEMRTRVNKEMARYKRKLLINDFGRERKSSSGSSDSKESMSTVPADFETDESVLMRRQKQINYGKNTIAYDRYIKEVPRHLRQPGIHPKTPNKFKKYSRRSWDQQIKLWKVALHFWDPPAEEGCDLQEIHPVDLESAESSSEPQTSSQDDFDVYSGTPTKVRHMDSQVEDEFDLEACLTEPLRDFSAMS
UniProt P16260: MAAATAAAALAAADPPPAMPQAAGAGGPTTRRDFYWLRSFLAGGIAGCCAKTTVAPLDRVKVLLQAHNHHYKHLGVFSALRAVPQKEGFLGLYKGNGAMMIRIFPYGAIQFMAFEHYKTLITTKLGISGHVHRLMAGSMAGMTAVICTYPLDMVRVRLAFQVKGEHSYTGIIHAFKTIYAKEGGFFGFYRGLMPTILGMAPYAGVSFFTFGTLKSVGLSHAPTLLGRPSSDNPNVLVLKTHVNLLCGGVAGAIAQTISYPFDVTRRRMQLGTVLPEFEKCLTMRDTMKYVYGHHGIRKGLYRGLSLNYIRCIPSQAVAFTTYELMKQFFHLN
UniProt Q6P1K1: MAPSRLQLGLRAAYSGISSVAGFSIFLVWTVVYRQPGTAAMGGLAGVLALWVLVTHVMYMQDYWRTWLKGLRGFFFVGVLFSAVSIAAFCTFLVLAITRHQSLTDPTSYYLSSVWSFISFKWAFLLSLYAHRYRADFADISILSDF

[2] = compound: CC1=C(SC2=C1C(=N[C@H](C3=NN=C(N32)C)CC(=O)N)C4=CC=C(C=C4)Cl)C
Outline: as §1

[3] = compound: CC1=C2C(=CC=C1)N=C(N(C2=O)C3=CC=CC=C3C)CN4C=NC5=C(N=CN=C54)N
Outline: as §1

[4] = compound: Cc1sc2c(c1C)C(c1ccc(Cl)cc1)=N[C@@H](CC(=O)OC(C)(C)C)c1nnc(C)n1-2
Outline: as §1

[5] = compound: c1ccc([C@@H]2C[C@H]2NC2CCNCC2)cc1
Outline: as §1

Measured: log2 fold change

SLC66A2 (UniProt Q8N2U9)
inactive: [1] 0.029

SLC20A1 (UniProt Q8WUM9)
inactive: [1] 0.002 | [2] 0.01 | [3] 0.063 | [4] -0.018 | [5] 0.014

SLC50A1 (UniProt Q9BRV3)
inactive: [1] -0.17

SLC35A4 (UniProt L0R6Q1)
inactive: [1] 0 | [2] 0.084 | [3] -0.036 | [4] -0.146 | [5] 0.006

SLC25A17 (UniProt O43808)
inactive: [1] 0.011 | [2] 0.012 | [3] -0.046 | [4] -0.025 | [5] 0

SLC36A4 (UniProt Q6YBV0)
inactive: [1] 0.111

SLC35F6 (UniProt Q8N357)
inactive: [1] -0.034 | [2] -0.045 | [3] 0.064 | [4] -0.057 | [5] 0.067

SLC66A1 (UniProt Q6ZP29)
inactive: [1] -0.171

SLC26A11 (UniProt I3L0N9)
inactive: [1] -0.305

SLC16A1 (UniProt P53985)
inactive: [1] -0.062 | [2] 0.021 | [3] 0.149 | [4] 0.033 | [5] 0.047

SLC20A2 (UniProt Q08357)
inactive: [1] 0.031 | [2] 0 | [3] 0.028 | [4] 0.039 | [5] 0.058

SLC30A1 (UniProt Q9Y6M5)
inactive: [1] 0.001 | [2] 0.048 | [3] 0.015 | [4] 0.013 | [5] 0.048

SLC29A2 (UniProt Q14542)
inactive: [1] -0.07 | [2] 0 | [3] -0.008 | [4] -0.187 | [5] 0.075

SLC36A1 (UniProt E5RG64)
inactive: [1] 0

SLC35F5 (UniProt Q8WV83)
inactive: [1] -0.001

SLC35F2 (UniProt Q8IXU6)
inactive: [1] 0.017 | [2] -0.013 | [3] 0.019 | [4] -0.079 | [5] -0.017

SLC37A4 isoform 2 (UniProt O43826)
inactive: [1] 0.012 | [2] 0.071 | [3] -0.007 | [4] 0.016 | [5] 0.054

SLC7A5 (UniProt Q01650)
inactive: [1] 0 | [2] 0.017 | [3] 0.019 | [4] -0.005 | [5] 0.043

SLC29A3 (UniProt Q9BZD2)
inactive: [1] 0.036 | [2] 0.033 | [3] 0.044 | [4] -0.352 | [5] 0.139

SLC27A1 (UniProt Q6PCB7)
inactive: [1] -0.02 | [2] 0.161 | [3] 0.293 | [4] 0.11 | [5] -0.029

SLC1A3 (UniProt P43003)
inactive: [1] -0.031 | [2] 0.003 | [3] -0.016 | [4] 0.17 | [5] 0.039

SLC35A3 isoform 2 (UniProt Q9Y2D2)
inactive: [1] 0.058

SLBP (UniProt Q14493)
inactive: [1] -0.092 | [2] -0.056 | [3] 0.042 | [4] 0.059 | [5] 0.034

Taken from above (2 entries):
SLC66A1 (UniProt Q6ZP29)
inactive: [1] -0.171

SLC26A11 (UniProt I3L0N9)
inactive: [1] -0.305

The list goes on.

SLC12A6 isoform 2 (UniProt Q9UHW9)
inactive: [1] 0.081 | [2] 0.014 | [3] -0.02 | [4] 0.038 | [5] 0.023

SLC25A46 (UniProt Q96AG3)
inactive: [1] 0.002 | [2] -0.004 | [3] 0.096 | [4] -0.038 | [5] -0.009

SLC39A10 (UniProt Q9ULF5)
inactive: [1] 0.019 | [2] 0.073 | [3] 0.002 | [4] 0.042 | [5] 0

SLC38A9 (UniProt Q8NBW4)
inactive: [1] 0.053 | [2] -0.019 | [3] 0.065 | [4] -0.014 | [5] 0.042

SLC25A16 (UniProt P16260)
inactive: [1] -0.037 | [2] 0.005 | [3] 0.118 | [4] -0.054 | [5] 0.01

SLC48A1 (UniProt Q6P1K1)
inactive: [1] -0.005

SLC4A3 isoform 3 (UniProt P48751)
inactive: [1] -0.101

Reference: the supplement of paper PMC10849652
